# The supplement of paper PMC12067093, “Discovery and optimisation of a covalent ligand for TRIM25 and its application to targeted protein ubiquitination” (Chemical Science, 2025)
# The chains behind the UniProt entries cited, without tags or fusion partners. Where a name states a change or a piece, a line headed by the entry shows the natural chain unless it says otherwise.
# UniProt Q86WN1: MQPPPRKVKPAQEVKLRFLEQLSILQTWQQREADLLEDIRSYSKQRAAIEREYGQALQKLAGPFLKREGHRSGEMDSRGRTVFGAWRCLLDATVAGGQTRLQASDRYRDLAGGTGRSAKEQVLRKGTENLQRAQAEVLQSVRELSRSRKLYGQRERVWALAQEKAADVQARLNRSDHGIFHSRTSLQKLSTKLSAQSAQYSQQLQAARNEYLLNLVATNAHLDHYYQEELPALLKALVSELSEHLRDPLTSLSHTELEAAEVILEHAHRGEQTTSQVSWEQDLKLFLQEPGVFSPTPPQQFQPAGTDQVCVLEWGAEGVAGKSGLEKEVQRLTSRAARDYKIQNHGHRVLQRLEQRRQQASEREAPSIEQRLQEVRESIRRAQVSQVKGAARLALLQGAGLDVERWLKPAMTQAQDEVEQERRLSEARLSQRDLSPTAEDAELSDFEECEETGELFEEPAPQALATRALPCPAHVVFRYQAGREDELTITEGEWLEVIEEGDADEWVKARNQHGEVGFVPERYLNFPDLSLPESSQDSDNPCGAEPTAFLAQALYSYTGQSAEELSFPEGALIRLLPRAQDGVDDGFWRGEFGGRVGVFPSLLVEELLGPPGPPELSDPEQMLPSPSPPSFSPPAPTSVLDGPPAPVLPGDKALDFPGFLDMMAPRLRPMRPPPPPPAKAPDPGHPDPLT
# UniProt P49327, whole entry, looked up: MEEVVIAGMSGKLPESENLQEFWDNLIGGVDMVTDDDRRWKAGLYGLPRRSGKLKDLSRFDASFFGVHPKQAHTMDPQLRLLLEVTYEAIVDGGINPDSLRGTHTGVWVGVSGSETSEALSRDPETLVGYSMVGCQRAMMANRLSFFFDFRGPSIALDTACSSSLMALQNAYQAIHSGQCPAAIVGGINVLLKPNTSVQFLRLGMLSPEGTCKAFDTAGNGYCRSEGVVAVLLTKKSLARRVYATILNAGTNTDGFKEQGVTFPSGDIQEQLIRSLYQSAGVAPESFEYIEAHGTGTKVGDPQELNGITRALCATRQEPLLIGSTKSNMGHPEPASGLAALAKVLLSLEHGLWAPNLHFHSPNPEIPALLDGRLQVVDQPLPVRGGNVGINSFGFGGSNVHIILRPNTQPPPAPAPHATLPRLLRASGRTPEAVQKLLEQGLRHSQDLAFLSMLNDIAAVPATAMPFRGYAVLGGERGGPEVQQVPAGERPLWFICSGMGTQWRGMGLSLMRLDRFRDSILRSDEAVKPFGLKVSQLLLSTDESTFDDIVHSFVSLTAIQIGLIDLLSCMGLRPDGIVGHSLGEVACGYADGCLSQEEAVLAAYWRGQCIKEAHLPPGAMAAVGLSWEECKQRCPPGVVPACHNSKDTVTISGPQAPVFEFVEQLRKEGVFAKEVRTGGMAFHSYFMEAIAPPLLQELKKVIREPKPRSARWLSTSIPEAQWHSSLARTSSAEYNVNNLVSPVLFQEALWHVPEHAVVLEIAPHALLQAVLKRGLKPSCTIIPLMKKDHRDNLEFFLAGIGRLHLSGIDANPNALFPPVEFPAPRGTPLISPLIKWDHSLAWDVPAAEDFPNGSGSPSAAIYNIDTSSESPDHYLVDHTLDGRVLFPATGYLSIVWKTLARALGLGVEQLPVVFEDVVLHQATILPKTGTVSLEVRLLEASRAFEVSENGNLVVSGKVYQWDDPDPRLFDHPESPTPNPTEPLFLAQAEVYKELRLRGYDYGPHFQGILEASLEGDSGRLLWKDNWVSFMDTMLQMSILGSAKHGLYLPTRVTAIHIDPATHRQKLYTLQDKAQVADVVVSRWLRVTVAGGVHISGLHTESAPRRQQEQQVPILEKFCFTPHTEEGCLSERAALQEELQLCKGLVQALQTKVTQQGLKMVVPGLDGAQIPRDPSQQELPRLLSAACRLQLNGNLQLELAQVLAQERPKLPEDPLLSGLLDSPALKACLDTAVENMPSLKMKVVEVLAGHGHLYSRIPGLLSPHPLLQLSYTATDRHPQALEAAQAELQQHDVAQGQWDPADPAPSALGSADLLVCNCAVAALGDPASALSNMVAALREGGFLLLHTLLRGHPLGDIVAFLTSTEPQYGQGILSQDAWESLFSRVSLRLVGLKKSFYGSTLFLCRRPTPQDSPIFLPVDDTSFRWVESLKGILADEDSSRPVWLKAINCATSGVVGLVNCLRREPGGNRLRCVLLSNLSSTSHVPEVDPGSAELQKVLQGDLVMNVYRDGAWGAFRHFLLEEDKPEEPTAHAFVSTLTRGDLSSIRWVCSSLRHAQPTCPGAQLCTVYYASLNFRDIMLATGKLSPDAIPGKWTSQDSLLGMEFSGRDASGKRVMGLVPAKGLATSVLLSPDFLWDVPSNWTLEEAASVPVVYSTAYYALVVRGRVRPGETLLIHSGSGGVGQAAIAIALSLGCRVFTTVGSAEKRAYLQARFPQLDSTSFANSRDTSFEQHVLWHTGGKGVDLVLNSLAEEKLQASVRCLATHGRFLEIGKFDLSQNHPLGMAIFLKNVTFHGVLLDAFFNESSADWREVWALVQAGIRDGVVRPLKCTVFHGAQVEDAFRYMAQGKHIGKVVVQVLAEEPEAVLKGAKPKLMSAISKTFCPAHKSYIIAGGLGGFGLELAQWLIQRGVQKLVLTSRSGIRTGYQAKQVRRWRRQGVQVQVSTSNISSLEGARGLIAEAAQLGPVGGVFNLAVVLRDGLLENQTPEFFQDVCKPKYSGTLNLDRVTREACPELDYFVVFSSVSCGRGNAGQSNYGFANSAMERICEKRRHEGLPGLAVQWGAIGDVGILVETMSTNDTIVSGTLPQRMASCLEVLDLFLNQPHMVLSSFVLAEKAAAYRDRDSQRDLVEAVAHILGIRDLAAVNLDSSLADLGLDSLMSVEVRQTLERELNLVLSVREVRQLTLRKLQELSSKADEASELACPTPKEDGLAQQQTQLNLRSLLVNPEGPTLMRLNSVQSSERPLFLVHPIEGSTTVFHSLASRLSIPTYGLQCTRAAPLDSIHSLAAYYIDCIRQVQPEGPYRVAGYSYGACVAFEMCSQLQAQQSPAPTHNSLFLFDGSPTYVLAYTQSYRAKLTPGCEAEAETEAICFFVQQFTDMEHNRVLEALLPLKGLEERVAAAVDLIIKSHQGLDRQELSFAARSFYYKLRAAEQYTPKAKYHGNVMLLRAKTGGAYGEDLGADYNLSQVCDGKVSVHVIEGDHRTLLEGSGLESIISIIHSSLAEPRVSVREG
# UniProt P39748, whole entry, looked up: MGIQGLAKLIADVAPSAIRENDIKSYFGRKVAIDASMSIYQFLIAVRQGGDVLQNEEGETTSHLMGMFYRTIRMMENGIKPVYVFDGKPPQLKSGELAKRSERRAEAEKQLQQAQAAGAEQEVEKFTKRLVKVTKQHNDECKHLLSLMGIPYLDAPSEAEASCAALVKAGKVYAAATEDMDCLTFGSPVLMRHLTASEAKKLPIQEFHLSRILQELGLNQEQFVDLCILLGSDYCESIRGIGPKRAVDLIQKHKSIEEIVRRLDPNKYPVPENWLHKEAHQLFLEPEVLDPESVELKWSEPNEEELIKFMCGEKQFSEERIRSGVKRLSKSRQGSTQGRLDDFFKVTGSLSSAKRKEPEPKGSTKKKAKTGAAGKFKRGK
# UniProt Q9NX38: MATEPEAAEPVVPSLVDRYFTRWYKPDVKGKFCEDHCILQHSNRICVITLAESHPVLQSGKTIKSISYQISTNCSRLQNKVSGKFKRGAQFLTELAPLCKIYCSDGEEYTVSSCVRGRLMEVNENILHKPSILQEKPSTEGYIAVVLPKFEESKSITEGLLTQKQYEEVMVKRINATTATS
# UniProt Q96ME1: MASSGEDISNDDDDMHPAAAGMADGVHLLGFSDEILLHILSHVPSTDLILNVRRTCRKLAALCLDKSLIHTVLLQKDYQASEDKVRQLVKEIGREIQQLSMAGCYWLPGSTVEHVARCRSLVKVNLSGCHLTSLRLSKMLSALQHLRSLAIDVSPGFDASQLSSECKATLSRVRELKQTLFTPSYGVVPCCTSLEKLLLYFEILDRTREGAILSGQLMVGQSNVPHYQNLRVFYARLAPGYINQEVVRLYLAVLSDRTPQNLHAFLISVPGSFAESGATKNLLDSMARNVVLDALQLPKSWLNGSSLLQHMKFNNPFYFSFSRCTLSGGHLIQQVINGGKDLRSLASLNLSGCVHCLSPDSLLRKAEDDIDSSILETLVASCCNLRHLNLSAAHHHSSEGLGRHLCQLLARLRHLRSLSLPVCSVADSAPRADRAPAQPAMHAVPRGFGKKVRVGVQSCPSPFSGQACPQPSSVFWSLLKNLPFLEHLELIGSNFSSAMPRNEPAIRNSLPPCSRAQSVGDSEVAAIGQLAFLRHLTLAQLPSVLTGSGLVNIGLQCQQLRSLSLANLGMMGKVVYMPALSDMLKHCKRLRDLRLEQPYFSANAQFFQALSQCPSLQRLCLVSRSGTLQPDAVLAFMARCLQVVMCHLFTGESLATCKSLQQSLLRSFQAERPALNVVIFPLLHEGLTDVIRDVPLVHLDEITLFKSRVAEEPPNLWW
# Some of the results follow.
# Compound: Cc1cc(ccc1-c1ccccc1)C(=O)N1CCCN(CC1)C(=O)CCl [compound 10]
# Experiment: probe-labelled cysteine peptide fold change vs DMSO (competition) (log2 fold change); higher = less target engagement (more negative = stronger competition)
# Conditions: THP-1, incubation time: 4 h
# 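Further: competitive profiling in live THP-1 cells: cysteine peptides tagged with an iodoacetamide desthiobiotin (IA-DTB) probe, intensity after compound treatment relative to DMSO-treated cells.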
target,measurement,setting,value
FCHSD1_Q86WN1_471_ALPCPAHVVFR (UniProt Q86WN1),probe-labelled cysteine peptide fold change,10 µM,-0.0495
same,probe-labelled cysteine peptide fold change,50 µM,0.0779
FASN_P49327_1227_ACLDTAVENMPSLK (UniProt P49327),probe-labelled cysteine peptide fold change,10 µM,0.0497
same,probe-labelled cysteine peptide fold change,50 µM,-0.11
FEN1_P39748_141_QHNDECK (UniProt P39748),probe-labelled cysteine peptide fold change,10 µM,-0.000785
same,probe-labelled cysteine peptide fold change,50 µM,-0.268
FAM206A_Q9NX38_74_SISYQISTNCSR (UniProt Q9NX38),probe-labelled cysteine peptide fold change,10 µM,-0.121
same,probe-labelled cysteine peptide fold change,50 µM,-0.527
FBXL18_Q96ME1_613_LEQPYFSANAQFFQALSQCPSLQR (UniProt Q96ME1),probe-labelled cysteine peptide fold change,10 µM,-0.134
same,probe-labelled cysteine peptide fold change,50 µM,0.227
FERMT3_Q86UX7_194_GMPAHFSDSAQTEACYHMLSRPQPPPDPLLLQR (UniProt Q86UX7),probe-labelled cysteine peptide fold change,10 µM,-0.329
same,probe-labelled cysteine peptide fold change,50 µM,-0.519
FAT1_Q14517_574_INCEGTIPR (UniProt Q14517),probe-labelled cysteine peptide fold change,10 µM,-0.292
same,probe-labelled cysteine peptide fold change,50 µM,-0.116

# Two neighbouring entries already listed, for reference:
target,measurement,setting,value
FAM206A_Q9NX38_74_SISYQISTNCSR (UniProt Q9NX38),probe-labelled cysteine peptide fold change,10 µM,-0.121
same,probe-labelled cysteine peptide fold change,50 µM,-0.527
